Measurements published in patent US20040253247A1.

Molecular target: albumin (species not stated, D3H44 fusion assays)
Test: SA08b competition binding assay (competitor: biotinylated SA08b), albumin species not given

Binder | binding
QGLIGDICLPRWGCLWGDSVK (N-terminus printed as Ac-, C-terminus printed as -n) [SA08] | binds

Molecular target: casein
Test: phage ELISA, photograph of the plate

Binder | binding
GEDWCDSTLLAFDLCGEGAR [BA-B44] | no binding
GENWCDWVLLAYDLCGEDNT [BA-B37] | no binding
MELWCDSTLMAYDLCGDFNM [BA-B39] | no binding
EVRSFCTDWPAHYSCTSLQG [HA-H74] | no binding
DSEVCYFPGICWSGT [HBC-H1] | no binding
EEDLCLPVWGCLWGA [RBC-R14] | no binding
DTCADLVRLGLECWA [RD-R2] | no binding
QRHPEDICLPRWGCLWGDDD [RB-H1] | no binding
HSQMEDICLPRWGCLWGDEL [RB-B8] | no binding
QGLIGDICLPRWGCLWGDSV [RB-R8] | no binding

Results are given in words; binding and its absence hold for the method and conditions named. For some assays here: Binding can be weak; no strength is given. For some assays here: Sequences can lack the tags named with a protein.
